{"source": "PubChem BioAssay AID743448, Peter MacCallum Cancer Centre – 2014", "screen": "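Third-round triage of 106 confirmed candidates in four colon lines under two drugs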 (follow-up of hits)", "system": "four human colon cancer cell lines: HCT116-VR (vorinostat-resistant HCT116 derivative), SW480, SW620 and LIM1215", "reagents": "siRNA pool against human genes, 40 nM siRNA pool", "timing": "drug added two days after transfection, read one day later", "conditions": "vorinostat 2.5 µM on one half of each plate, etoposide 5 µM on the other half", "read-out": "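Caspase luminescence and viability fluorescence, each expressed relative to mock transfection and also as robust z-scores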", "direction": "caspase ratio to mock: higher = more caspase activity than mock; viability ratio to mock: higher = more live cells than mock", "call rule": "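Hit means caspase ratio to mock at least 1.6, or viability ratio to mock at most 0.75; wells with strong death in the absence of drug get no call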", "calls": "active = caspase or viability hit in this panel; inactive = no change, or unhealthy well", "note": "In all, the deposit lists 106 reagents; below is a random part of them. 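Calls are per line and drug panel including etoposide, not vorinostat-specific; gene picks needed hits in two or more extra lines with vorinostat versus etoposide.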 Unmarked entries are inactive. Further read-outs or replicates are left out here."}
{"gene symbol":"IRX2-DT (GeneID 153571)","cell line and drug panel":"LIM1215 cells with etoposide","caspase ratio to mock":5.19,"viability ratio to mock":0.95}
{"gene symbol":"IRX2-DT (GeneID 153571)","cell line and drug panel":"LIM1215 cells with vorinostat","caspase ratio to mock":"3.86 (active)","viability ratio to mock":1.37}
{"gene symbol":"IRX2-DT (GeneID 153571)","cell line and drug panel":"SW480 cells with etoposide","caspase ratio to mock":"4.17 (active)","viability ratio to mock":0.86}
{"gene symbol":"IRX2-DT (GeneID 153571)","cell line and drug panel":"SW480 cells with vorinostat","caspase ratio to mock":"2.5 (active)","viability ratio to mock":1.04}
{"gene symbol":"IRX2-DT (GeneID 153571)","cell line and drug panel":"SW620 cells with etoposide","caspase ratio to mock":1.3,"viability ratio to mock":0.92}
{"gene symbol":"IRX2-DT (GeneID 153571)","cell line and drug panel":"SW620 cells with vorinostat","caspase ratio to mock":"1.73 (active)","viability ratio to mock":1.08}
{"gene symbol":"IRX2-DT (GeneID 153571)","cell line and drug panel":"vorinostat-resistant HCT116 cells with etoposide","caspase ratio to mock":1.49,"viability ratio to mock":0.95}
{"gene symbol":"IRX2-DT (GeneID 153571)","cell line and drug panel":"vorinostat-resistant HCT116 cells with vorinostat","caspase ratio to mock":"2.11 (active)","viability ratio to mock":1.21}
{"gene symbol":"AP5S1 (GeneID 55317)","cell line and drug panel":"LIM1215 cells with etoposide","caspase ratio to mock":2.15,"viability ratio to mock":0.61}
{"gene symbol":"AP5S1 (GeneID 55317)","cell line and drug panel":"LIM1215 cells with vorinostat","caspase ratio to mock":2.31,"viability ratio to mock":0.9}
{"gene symbol":"AP5S1 (GeneID 55317)","cell line and drug panel":"SW480 cells with etoposide","caspase ratio to mock":"2.49 (active)","viability ratio to mock":0.59}
{"gene symbol":"AP5S1 (GeneID 55317)","cell line and drug panel":"SW480 cells with vorinostat","caspase ratio to mock":1.85,"viability ratio to mock":0.64}
{"gene symbol":"AP5S1 (GeneID 55317)","cell line and drug panel":"SW620 cells with etoposide","caspase ratio to mock":"0.94 (active)","viability ratio to mock":0.64}
{"gene symbol":"AP5S1 (GeneID 55317)","cell line and drug panel":"SW620 cells with vorinostat","caspase ratio to mock":1.32,"viability ratio to mock":0.88}
{"gene symbol":"AP5S1 (GeneID 55317)","cell line and drug panel":"vorinostat-resistant HCT116 cells with etoposide","caspase ratio to mock":1.04,"viability ratio to mock":0.77}
{"gene symbol":"AP5S1 (GeneID 55317)","cell line and drug panel":"vorinostat-resistant HCT116 cells with vorinostat","caspase ratio to mock":1.31,"viability ratio to mock":0.9}
{"gene symbol":"AKAP8 (GeneID 10270)","cell line and drug panel":"LIM1215 cells with etoposide","caspase ratio to mock":"1.86 (active)","viability ratio to mock":0.92}
{"gene symbol":"AKAP8 (GeneID 10270)","cell line and drug panel":"LIM1215 cells with vorinostat","caspase ratio to mock":"2.19 (active)","viability ratio to mock":1.2}
{"gene symbol":"AKAP8 (GeneID 10270)","cell line and drug panel":"SW480 cells with etoposide","caspase ratio to mock":"2.88 (active)","viability ratio to mock":0.96}
{"gene symbol":"AKAP8 (GeneID 10270)","cell line and drug panel":"SW480 cells with vorinostat","caspase ratio to mock":"2.33 (active)","viability ratio to mock":1.16}
{"gene symbol":"AKAP8 (GeneID 10270)","cell line and drug panel":"SW620 cells with etoposide","caspase ratio to mock":0.81,"viability ratio to mock":0.9}
{"gene symbol":"AKAP8 (GeneID 10270)","cell line and drug panel":"SW620 cells with vorinostat","caspase ratio to mock":1.19,"viability ratio to mock":1.07}
{"gene symbol":"AKAP8 (GeneID 10270)","cell line and drug panel":"vorinostat-resistant HCT116 cells with etoposide","caspase ratio to mock":"1.72 (active)","viability ratio to mock":0.92}
{"gene symbol":"AKAP8 (GeneID 10270)","cell line and drug panel":"vorinostat-resistant HCT116 cells with vorinostat","caspase ratio to mock":"2.58 (active)","viability ratio to mock":1.05}

In a second layout: entries from further up.
{"gene symbol": "AKAP8 (GeneID 10270)", "cell line and drug panel": "SW480 cells with etoposide", "caspase ratio to mock": "2.88 (active)", "viability ratio to mock": 0.96}
{"gene symbol": "AKAP8 (GeneID 10270)", "cell line and drug panel": "SW480 cells with vorinostat", "caspase ratio to mock": "2.33 (active)", "viability ratio to mock": 1.16}
